{
  "sequences": {"note": "Protein sequences, listed by entry. Tags and fused reporters are not part of them. Lines headed by an entry give the natural chain unless they say otherwise; changes in a name come on top.", "UniProt P33535, whole entry": "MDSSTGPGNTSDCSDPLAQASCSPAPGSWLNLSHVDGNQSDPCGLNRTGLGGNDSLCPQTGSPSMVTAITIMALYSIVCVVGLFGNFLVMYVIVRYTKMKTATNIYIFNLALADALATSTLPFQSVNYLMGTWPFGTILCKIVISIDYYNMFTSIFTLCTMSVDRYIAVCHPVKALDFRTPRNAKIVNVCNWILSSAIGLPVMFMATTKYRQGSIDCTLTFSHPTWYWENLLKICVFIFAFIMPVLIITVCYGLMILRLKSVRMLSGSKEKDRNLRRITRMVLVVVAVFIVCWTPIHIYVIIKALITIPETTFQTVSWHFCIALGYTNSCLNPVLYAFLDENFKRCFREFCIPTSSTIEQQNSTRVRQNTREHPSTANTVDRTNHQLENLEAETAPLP", "UniProt P33533, whole entry": "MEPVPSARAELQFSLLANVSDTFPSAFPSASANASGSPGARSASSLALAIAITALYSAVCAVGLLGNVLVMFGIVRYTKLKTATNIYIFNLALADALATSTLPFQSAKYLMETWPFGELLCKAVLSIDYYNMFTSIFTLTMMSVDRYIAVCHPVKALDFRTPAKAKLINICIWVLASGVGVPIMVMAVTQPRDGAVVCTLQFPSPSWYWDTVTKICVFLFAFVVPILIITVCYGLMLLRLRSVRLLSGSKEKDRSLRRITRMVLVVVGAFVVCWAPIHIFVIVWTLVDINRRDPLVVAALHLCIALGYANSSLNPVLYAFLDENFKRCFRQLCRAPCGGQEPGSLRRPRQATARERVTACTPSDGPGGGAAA"},
  "source": "patent US5169833A",
  "about": "“Substituted cyclic pentapeptides” (G. D. Searle & Co., priority 1991, dated 1992)",
  "key": {"μ opioid receptors": {"biological_target": "μ opioid receptors (Rattus norvegicus, UniProt P33535)", "experiment": "Opiate Binding Assay, μ (3[H]-DAMPGO displacement)", "conditions": "read-out: Mean IC50 Value (μ); rat forebrain membranes, 3[H]-DAMPGO 2.0 nM, 37° C., pH 7.4"}, "δ opioid receptors": {"biological_target": "δ opioid receptors (Rattus norvegicus, UniProt P33533)", "experiment": "Opiate Binding Assay, δ (3[H]-DSLET displacement)"}, "CD Charles River mice": {"test_system": "CD Charles River mice", "experiment": "Writhing Assay (PBQ-induced writhing)", "assay_type": "in vivo", "conditions": "mouse, at 30 mpk, 30 mg/kg", "source_text": "The \"Writhing Assay\" is one of the most widely-used experimental procedures for measuring the analgesic activity of different narcotic and nonnarcotic analgesic agents, and involves the continuous, chemically-induced pain of visceral origin to an animal, such as a mouse or rat. [Gyires et al., Arch. int. Pharmacodyn, 267, 131-140 (1984); C. Vander Wende et al., Fed. Proc., 15, 494 (1956); Koster et al., Fed. Proc., 18, 412 (1959); and Witken et al., J. Pharmacol. Exp. Ther., 133, 400-408 (1961).] Chemicals Which may be used to induce this pain include phenylbenzoquinone (PBQ) and acetic acid. […]\nFive minutes later, each mouse was individually placed into a glass beaker for observation, and the number of writhes occurring during the following ten-minute period was counted.\nA pentapeptide compound was considered to be \"active\" (to have produced analgesia in a mouse) if, after the administration of 10 mg per kilogram (mpk) of body weight of the compound to the mouse, the number of writhes elicited by a mouse injected with PBQ was equal to, or less than, one-half the median number of writhes recorded for the saline-treated control group of mice that day, as described by R. I. Taber, supra. […]"}},
  "note": "pIC50: −log10 of the molar value. For some assays here: At least one peptide structure holds a part that was inferred or is arguable (an end, a ring closure or a residue). For some assays here: For at least one compound, name, drawing or mass did not settle the structure.",
  "data": [
    {"smiles": "Cc1cc(O)cc(C)c1C[C@H](N)C(=O)N[C@H]1C(=O)NCC(=O)N[C@@H](CC2CCCCC2)C(=O)N[C@@H](C(N)=O)C(C)(C)SSC1(C)C", "note": "[Example 24, 2,6-dimethyl-L-tyrosyl-3-mercapto-D-valylglycyl-3-cyclohexyl-L-alanyl-3-mercapto-D-valinamide, cyclic (2→5)-disulfide]", "values": [
      {"measurement": "pIC50", "setting": "μ opioid receptors", "value": 7.97},
      {"measurement": "pIC50", "setting": "δ opioid receptors; read-out: Mean IC50 Value (δ), rat forebrain membranes, 3[H]-DSLET 1.0 nM, 37° C., pH 7.4", "value": 8.17}
    ]},
    {"smiles": "CC1(C)SSC(C)(C)[C@@H](NC(=O)[C@@H](N)Cc2ccc(O)cc2)C(=O)NCC(=O)N[C@@H](Cc2ccccc2)C(=O)N[C@H]1C(=O)O", "note": "[Mosberg Pentapeptide, reference compound]", "values": [
      {"measurement": "Writhing Assay activity, Intragastric", "setting": "CD Charles River mice; i.g.", "value": "Inactive"},
      {"measurement": "Writhing Assay activity, Subcutaneous", "setting": "CD Charles River mice; s.c.", "value": "Inactive"}
    ]},
    {"smiles": "Cc1cc(O)c(C)c(C)c1CC(N)C(=O)N[C@H]1C(=O)NCC(=O)N[C@@H](Cc2ccccc2)C(=O)N[C@@H](C(=O)O)C(C)(C)SSC1(C)C", "note": "(single isomer, unassigned) [Example 20 (Diastereomer A), 2,3,6-trimethyl-L-tyrosyl-3-mercapto-D-valylglycyl-L-phenylalanyl-3-mercapto-D-valine, cyclic (2→5) disulfide]", "values": [
      {"measurement": "Mean IC50 μ/δ Ratio", "setting": "δ opioid receptors; ratio of mean IC50 values for μ and δ opioid receptors, above 1.0 = δ specific", "value": 1000}
    ]}
  ]
}
